In this test the target is T1, Tissue kallikrein-related peptidase 8 (KLK8) in rat hippocampus (not stated (rat hippocampus; species of the transgene not told)) (UniProt O88780).
T1 sequence: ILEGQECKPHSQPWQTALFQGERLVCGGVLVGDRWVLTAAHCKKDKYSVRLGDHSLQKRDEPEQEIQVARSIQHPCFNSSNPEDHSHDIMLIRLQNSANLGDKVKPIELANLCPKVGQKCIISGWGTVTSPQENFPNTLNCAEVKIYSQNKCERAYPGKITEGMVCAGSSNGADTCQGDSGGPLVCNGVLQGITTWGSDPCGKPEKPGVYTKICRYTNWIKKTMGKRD
Briefly: affinity purification with mass spectrometry; proteins from hippocampal tissue of KLK8 transgenic rats immunoprecipitated with antibodies against KLK8; SDS-PAGE, trypsin digestion, UPLC-MS/MS.

Amino acid sequences for entries named in this document (tags omitted). Residues count along the entry.
UniProt P13596, residues 20-858: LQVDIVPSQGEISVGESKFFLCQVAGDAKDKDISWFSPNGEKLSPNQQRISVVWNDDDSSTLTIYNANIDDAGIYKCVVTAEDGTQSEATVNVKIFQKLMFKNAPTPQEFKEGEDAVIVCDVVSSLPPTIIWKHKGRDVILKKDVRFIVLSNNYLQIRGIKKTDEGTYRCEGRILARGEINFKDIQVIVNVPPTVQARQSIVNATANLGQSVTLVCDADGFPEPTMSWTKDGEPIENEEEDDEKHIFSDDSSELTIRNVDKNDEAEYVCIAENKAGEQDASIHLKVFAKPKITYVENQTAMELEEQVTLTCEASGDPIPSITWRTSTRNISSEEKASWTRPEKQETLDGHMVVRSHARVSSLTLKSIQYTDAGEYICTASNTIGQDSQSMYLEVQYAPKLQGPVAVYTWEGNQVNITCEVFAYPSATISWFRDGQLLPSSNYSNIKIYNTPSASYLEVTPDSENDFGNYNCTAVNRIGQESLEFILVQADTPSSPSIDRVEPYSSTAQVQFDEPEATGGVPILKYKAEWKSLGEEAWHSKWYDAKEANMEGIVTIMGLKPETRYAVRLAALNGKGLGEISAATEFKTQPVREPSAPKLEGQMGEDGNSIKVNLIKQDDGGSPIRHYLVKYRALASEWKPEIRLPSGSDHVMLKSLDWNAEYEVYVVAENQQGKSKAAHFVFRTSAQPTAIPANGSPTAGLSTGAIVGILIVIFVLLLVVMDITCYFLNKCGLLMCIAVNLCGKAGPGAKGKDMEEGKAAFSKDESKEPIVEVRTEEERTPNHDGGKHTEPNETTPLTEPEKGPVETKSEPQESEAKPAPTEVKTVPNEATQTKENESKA

Results are given in words; binding and its absence hold for the method and conditions named. Binding seen in cells or lysates may run through a third protein. These calls come from enrichment with a bait or labelling near it, and not all partners need be listed.

For the substance “Neural cell adhesion molecule 1 (NCAM1) in rat hippocampus (from UniProt P13596 20-858)”, the binding result is given as “binds”.

Values taken from publication PMC10115824.
